Paper PMC4689063
No constants are given. Whether binding was seen depends on the method and setting. In cells and extracts the contact can be indirect. Some entries that bind do so weakly or less than the wild type.

Sequences of proteins named here, by UniProt entry; tags and fusion partners are left off. Residues count along the entry.
UniProt G3H953: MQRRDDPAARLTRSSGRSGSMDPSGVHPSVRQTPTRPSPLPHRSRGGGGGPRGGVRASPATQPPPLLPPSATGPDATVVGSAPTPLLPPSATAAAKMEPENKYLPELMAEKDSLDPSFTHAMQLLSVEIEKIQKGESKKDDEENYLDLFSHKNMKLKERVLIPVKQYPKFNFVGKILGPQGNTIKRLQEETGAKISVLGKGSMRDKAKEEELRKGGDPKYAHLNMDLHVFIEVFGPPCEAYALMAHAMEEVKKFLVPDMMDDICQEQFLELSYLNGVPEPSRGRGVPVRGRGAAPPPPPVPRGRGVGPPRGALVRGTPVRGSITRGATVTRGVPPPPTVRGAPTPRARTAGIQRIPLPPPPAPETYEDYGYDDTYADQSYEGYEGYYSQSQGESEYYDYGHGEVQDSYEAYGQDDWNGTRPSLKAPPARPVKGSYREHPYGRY
UniProt P03309, residues 1864-2333: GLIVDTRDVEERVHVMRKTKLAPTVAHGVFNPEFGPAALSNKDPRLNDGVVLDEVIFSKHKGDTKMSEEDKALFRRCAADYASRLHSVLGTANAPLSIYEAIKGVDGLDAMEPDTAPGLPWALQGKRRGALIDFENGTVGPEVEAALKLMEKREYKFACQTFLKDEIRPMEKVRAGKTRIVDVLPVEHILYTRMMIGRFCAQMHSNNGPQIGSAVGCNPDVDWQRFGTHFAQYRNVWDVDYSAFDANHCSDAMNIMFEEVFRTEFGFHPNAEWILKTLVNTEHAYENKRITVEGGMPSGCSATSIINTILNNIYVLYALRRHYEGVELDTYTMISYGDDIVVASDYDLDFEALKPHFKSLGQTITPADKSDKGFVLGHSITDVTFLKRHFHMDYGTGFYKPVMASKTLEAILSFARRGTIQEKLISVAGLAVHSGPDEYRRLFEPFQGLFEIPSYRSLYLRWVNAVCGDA

Tests used:
[1] = molecular target: Src-associated protein of 68 kDa in mitosis (Sam68), endogenous in BHK-21 cells (hamster (endogenous in BHK-21)) (UniProt G3H953); assay: co-IP
[2] = molecular target: FMDV RNA-dependent RNA polymerase 3D^pol, from infected BHK-21 cells (foot-and-mouth disease virus (type A24 Cruzeiro)) (UniProt P03309); assay: co-IP

Substance | binding [1] | binding [2]
FMDV RNA-dependent RNA polymerase 3D^pol, from infected BHK-21 cells (from UniProt P03309) (enzyme) | binds | 
Src-associated protein of 68 kDa in mitosis (Sam68), endogenous in BHK-21 cells (from UniProt G3H953 1-443) |  | binds
